Data as given in PubChem BioAssay AID1259322 (Peter MacCallum Cancer Centre, 2017).
The whole screen tested 208 reagents; this is a random part of them. In the full data, 72 (35%) got an active call. 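Four separate siRNAs per kinase gene, 52 genes in all; PAR2 agonist unnamed, with its dose and timing unknown.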 Unmarked entries are inactive. Reagents against one gene are numbered here. Not given: the amount of reagent, the time to read-out.

Screen: 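Kinase knock-downs reducing the TRPV4 calcium plateau after PAR2 stimulation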 (follow-up of hits)
Cells: human HEK293 cells with stable inducible TRPV4
Knock-down reagent: single siRNA against human genes
Conditions: PAR2 activation; agonist identity, dose and timing not stated
Detection: 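Fura-2 imaging of cytosolic calcium over time, first peak marking PAR2 and later plateau marking TRPV4 opening; both relative to mock on each plate, mean of two plates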
Direction: TRPV4 plateau calcium, % of mock: higher = stronger PAR2-dependent TRPV4 calcium entry; PAR2 peak calcium, % of mock: higher = stronger direct PAR2 calcium response
Active means: 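Scored active if TRPV4 plateau drops under 90% of mock while PAR2 peak is kept above 79% of mock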

How did the screen score RIPK2 #1?
TRPV4 plateau calcium, % of mock: 80.5 (active); PAR2 peak calcium, % of mock: 85.7

For RIPK2 #2, what does the deposit list?
TRPV4 plateau calcium, % of mock: 73.2; PAR2 peak calcium, % of mock: 78.1

Which result is listed for RIPK2 #3?
TRPV4 plateau calcium, % of mock: 94.3; PAR2 peak calcium, % of mock: 103

What did the screen give for RIPK2 #4?
TRPV4 plateau calcium, % of mock: 96.4; PAR2 peak calcium, % of mock: 101

What did the screen give for MLKL #1?
TRPV4 plateau calcium, % of mock: 73.5 (active); PAR2 peak calcium, % of mock: 92.4

Which result is listed for MLKL #2?
TRPV4 plateau calcium, % of mock: 73.9 (active); PAR2 peak calcium, % of mock: 86.7

For MLKL #3, what was measured?
TRPV4 plateau calcium, % of mock: 64.8; PAR2 peak calcium, % of mock: 73.4

With MLKL #4, what was measured?
TRPV4 plateau calcium, % of mock: 92.3; PAR2 peak calcium, % of mock: 98

With PIK3C2A #1, what does the deposit list?
TRPV4 plateau calcium, % of mock: 85.2 (active); PAR2 peak calcium, % of mock: 91.2

With PIK3C2A #2, what was measured?
TRPV4 plateau calcium, % of mock: 74.3; PAR2 peak calcium, % of mock: 77.7

With PIK3C2A #3, what was measured?
TRPV4 plateau calcium, % of mock: 71.7; PAR2 peak calcium, % of mock: 66.3

With PIK3C2A #4, what was measured?
TRPV4 plateau calcium, % of mock: 61.5; PAR2 peak calcium, % of mock: 58.3

Which result is listed for EFNB3 #1?
TRPV4 plateau calcium, % of mock: 79.2 (active); PAR2 peak calcium, % of mock: 84.7

What is on record for EFNB3 #2?
TRPV4 plateau calcium, % of mock: 73.4 (active); PAR2 peak calcium, % of mock: 79.7

For EFNB3 #3, what was measured?
TRPV4 plateau calcium, % of mock: 69.3; PAR2 peak calcium, % of mock: 65.6

How did the screen score EFNB3 #4?
TRPV4 plateau calcium, % of mock: 63; PAR2 peak calcium, % of mock: 73

With TAF1L #1, what was measured?
TRPV4 plateau calcium, % of mock: 82.9; PAR2 peak calcium, % of mock: 77.6

For TAF1L #2, what does the deposit list?
TRPV4 plateau calcium, % of mock: 125; PAR2 peak calcium, % of mock: 108

With TAF1L #3, what does the deposit list?
TRPV4 plateau calcium, % of mock: 90.6; PAR2 peak calcium, % of mock: 88.1

Which result is listed for TAF1L #4?
TRPV4 plateau calcium, % of mock: 95.7; PAR2 peak calcium, % of mock: 105

What is on record for ITPK1 #1?
TRPV4 plateau calcium, % of mock: 54.8; PAR2 peak calcium, % of mock: 60.2

With ITPK1 #2, how do the results read?
TRPV4 plateau calcium, % of mock: 80.1 (active); PAR2 peak calcium, % of mock: 92.5

For ITPK1 #3, what does the deposit list?
TRPV4 plateau calcium, % of mock: 72.2 (active); PAR2 peak calcium, % of mock: 89.5

What did the screen give for ITPK1 #4?
TRPV4 plateau calcium, % of mock: 83.2 (active); PAR2 peak calcium, % of mock: 95

What is on record for AAK1 #1?
TRPV4 plateau calcium, % of mock: 80.1 (active); PAR2 peak calcium, % of mock: 87.3

For AAK1 #2, how do the results read?
TRPV4 plateau calcium, % of mock: 97.5; PAR2 peak calcium, % of mock: 89.7

For AAK1 #3, what was measured?
TRPV4 plateau calcium, % of mock: 99.9; PAR2 peak calcium, % of mock: 105

For AAK1 #4, what does the deposit list?
TRPV4 plateau calcium, % of mock: 112; PAR2 peak calcium, % of mock: 100

With SIK2 #1, what does the deposit list?
TRPV4 plateau calcium, % of mock: 81.8; PAR2 peak calcium, % of mock: 78.8

What is on record for SIK2 #2?
TRPV4 plateau calcium, % of mock: 78.2 (active); PAR2 peak calcium, % of mock: 88.4

With SIK2 #3, what was measured?
TRPV4 plateau calcium, % of mock: 56.6; PAR2 peak calcium, % of mock: 51.8

With SIK2 #4, what was measured?
TRPV4 plateau calcium, % of mock: 59.7; PAR2 peak calcium, % of mock: 51

Which result is listed for PRKAB2 #1?
TRPV4 plateau calcium, % of mock: 69.2; PAR2 peak calcium, % of mock: 68.1

With PRKAB2 #2, how do the results read?
TRPV4 plateau calcium, % of mock: 87 (active); PAR2 peak calcium, % of mock: 95.9

What is on record for PRKAB2 #3?
TRPV4 plateau calcium, % of mock: 57.1; PAR2 peak calcium, % of mock: 72.8

What did the screen give for PRKAB2 #4?
TRPV4 plateau calcium, % of mock: 85.7 (active); PAR2 peak calcium, % of mock: 90.9

What is on record for MAPK13 #1?
TRPV4 plateau calcium, % of mock: 63.6 (active); PAR2 peak calcium, % of mock: 83.1

How did the screen score MAPK13 #2?
TRPV4 plateau calcium, % of mock: 87.9 (active); PAR2 peak calcium, % of mock: 99.8

For MAPK13 #3, what does the deposit list?
TRPV4 plateau calcium, % of mock: 88.2 (active); PAR2 peak calcium, % of mock: 104

With MAPK13 #4, what was measured?
TRPV4 plateau calcium, % of mock: 92.4; PAR2 peak calcium, % of mock: 102
